PubChem BioAssay (EPA / NIEHS)
Values joined by “and” are separate entries in the source; they are usually repeats but may differ in a detail not shown here. Equal entries are not always repeated. Inconclusive results, whose numbers are uncertain, are shown with a selection of clear calls. For some assays here: A potency beside an inconclusive call is a rough fit, not a confirmed value. Where a structure was tested more than once in an assay, its records may differ in their call. Active and inactive are the calls of the source. How the source made its calls: active means hit-call score of the fitted dose curve at least 0.9, where 1 is the maximum; inconclusive means response in the unintended direction; inactive means score below 0.9.

Chains of the proteins cited; added tags and fusions are not shown. Lines headed by an entry give the natural chain unless they say otherwise; changes in a name come on top.
UniProt O75469: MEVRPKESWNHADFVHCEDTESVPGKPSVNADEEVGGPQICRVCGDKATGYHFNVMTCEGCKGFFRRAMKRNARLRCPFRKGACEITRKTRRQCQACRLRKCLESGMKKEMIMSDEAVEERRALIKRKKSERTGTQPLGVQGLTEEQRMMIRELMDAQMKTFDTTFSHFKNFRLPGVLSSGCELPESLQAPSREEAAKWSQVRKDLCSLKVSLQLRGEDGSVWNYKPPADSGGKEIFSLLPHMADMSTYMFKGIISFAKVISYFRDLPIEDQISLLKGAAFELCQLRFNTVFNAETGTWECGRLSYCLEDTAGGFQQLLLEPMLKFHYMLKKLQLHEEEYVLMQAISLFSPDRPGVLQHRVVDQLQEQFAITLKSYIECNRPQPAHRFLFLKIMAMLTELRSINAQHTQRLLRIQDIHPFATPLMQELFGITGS
UniProt P37231: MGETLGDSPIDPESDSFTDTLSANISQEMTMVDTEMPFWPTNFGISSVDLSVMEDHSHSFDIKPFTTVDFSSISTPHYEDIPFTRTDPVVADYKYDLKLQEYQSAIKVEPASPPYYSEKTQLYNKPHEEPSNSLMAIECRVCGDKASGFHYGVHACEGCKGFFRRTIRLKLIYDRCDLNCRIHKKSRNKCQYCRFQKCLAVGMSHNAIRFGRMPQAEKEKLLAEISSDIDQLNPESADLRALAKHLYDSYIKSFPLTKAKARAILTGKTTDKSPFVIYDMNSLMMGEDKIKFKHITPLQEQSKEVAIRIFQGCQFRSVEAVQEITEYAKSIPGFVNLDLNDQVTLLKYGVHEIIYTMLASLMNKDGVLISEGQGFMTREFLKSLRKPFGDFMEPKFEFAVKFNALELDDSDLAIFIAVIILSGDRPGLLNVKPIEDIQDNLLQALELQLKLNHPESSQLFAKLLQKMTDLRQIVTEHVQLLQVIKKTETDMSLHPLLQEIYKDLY
UniProt Q96RI1: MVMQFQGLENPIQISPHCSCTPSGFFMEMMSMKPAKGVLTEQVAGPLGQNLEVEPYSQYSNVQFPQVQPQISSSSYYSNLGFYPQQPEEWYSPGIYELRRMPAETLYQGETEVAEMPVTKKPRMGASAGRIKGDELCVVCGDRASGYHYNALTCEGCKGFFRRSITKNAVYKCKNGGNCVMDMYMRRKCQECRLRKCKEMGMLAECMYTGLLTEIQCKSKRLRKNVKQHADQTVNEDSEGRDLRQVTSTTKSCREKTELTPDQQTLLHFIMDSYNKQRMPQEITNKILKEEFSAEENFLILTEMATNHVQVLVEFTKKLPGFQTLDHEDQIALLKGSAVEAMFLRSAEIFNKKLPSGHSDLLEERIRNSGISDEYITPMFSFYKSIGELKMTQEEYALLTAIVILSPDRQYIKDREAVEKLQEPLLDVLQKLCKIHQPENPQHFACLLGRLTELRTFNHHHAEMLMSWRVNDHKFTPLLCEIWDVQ
UniProt P23975, whole entry, looked up: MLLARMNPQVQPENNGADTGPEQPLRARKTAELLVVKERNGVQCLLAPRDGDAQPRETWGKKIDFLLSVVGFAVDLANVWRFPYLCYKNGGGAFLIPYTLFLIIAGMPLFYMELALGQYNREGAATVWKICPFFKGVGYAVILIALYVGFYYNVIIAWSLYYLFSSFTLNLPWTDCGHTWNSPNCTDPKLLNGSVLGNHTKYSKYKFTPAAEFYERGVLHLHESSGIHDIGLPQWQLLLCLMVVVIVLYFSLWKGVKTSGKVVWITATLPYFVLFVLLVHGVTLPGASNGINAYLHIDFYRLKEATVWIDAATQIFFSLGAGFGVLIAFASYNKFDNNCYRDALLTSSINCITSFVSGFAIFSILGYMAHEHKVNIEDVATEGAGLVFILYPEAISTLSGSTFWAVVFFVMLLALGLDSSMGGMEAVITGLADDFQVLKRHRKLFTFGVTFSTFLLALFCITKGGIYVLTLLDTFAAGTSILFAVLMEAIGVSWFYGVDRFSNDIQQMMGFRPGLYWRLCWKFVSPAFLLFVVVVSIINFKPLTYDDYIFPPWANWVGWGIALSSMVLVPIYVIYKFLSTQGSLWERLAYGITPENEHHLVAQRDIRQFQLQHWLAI
UniProt P19785, whole entry, looked up: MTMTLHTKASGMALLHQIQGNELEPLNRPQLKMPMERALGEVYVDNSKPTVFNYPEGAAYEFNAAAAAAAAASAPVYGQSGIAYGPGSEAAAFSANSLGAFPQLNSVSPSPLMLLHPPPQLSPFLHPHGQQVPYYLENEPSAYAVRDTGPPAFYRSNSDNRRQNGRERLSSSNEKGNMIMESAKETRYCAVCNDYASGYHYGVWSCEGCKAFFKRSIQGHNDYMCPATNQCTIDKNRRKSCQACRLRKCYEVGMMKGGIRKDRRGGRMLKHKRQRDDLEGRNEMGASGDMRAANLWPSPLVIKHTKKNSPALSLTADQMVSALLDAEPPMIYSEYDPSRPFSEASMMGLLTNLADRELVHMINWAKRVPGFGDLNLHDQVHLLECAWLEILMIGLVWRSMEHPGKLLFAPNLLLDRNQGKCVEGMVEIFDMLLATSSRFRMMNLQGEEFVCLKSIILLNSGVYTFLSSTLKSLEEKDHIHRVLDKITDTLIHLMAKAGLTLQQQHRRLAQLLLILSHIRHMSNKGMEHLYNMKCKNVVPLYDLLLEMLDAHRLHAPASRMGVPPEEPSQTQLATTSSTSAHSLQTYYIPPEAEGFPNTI
UniProt Q60492, whole entry, looked up: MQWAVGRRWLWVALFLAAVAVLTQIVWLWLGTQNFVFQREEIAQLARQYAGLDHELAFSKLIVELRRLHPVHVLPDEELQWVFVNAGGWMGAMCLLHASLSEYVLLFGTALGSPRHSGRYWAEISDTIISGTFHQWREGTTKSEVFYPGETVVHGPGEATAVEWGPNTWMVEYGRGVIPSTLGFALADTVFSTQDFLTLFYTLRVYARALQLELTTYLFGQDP
UniProt P15207: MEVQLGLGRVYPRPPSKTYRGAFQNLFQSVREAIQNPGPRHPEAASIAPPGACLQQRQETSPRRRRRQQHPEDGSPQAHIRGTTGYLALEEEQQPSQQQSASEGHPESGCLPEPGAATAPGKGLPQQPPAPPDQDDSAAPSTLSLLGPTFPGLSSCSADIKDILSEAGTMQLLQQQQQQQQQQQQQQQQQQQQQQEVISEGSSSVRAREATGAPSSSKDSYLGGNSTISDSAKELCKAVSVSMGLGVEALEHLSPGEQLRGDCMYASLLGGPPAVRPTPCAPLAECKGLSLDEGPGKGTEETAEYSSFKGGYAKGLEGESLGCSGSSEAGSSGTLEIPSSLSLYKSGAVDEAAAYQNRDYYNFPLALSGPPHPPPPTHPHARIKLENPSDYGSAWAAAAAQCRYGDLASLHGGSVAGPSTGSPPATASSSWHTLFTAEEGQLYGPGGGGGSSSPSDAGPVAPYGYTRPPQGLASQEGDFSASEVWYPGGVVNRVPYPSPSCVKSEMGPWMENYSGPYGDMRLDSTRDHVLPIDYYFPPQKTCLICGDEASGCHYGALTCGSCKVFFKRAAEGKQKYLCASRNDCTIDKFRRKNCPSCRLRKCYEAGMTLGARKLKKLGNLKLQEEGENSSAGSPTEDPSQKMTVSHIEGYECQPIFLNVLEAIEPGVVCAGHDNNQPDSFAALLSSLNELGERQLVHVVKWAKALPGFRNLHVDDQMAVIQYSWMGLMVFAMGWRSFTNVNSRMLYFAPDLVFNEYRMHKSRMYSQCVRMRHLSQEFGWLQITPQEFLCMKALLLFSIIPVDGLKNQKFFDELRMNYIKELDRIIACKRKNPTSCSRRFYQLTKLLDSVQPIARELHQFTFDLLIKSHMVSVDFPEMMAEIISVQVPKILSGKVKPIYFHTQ
UniProt P31645, whole entry, looked up: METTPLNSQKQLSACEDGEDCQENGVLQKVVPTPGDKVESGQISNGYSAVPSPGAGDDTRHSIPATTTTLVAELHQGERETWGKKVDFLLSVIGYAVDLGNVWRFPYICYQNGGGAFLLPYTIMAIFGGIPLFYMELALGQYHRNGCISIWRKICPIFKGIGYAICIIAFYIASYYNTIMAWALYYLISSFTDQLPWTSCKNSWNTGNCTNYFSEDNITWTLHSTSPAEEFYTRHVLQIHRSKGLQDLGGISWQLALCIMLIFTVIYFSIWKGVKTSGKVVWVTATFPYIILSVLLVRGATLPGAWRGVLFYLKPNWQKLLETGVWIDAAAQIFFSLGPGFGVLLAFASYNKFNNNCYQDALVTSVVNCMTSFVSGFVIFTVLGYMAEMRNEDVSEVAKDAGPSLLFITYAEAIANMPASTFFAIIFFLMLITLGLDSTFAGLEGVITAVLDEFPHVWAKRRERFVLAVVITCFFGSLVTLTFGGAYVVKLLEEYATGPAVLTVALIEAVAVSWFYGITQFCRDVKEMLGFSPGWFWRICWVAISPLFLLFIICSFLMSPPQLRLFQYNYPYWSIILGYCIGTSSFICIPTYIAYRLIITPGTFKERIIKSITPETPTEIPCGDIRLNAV
UniProt Q92731, whole entry, looked up: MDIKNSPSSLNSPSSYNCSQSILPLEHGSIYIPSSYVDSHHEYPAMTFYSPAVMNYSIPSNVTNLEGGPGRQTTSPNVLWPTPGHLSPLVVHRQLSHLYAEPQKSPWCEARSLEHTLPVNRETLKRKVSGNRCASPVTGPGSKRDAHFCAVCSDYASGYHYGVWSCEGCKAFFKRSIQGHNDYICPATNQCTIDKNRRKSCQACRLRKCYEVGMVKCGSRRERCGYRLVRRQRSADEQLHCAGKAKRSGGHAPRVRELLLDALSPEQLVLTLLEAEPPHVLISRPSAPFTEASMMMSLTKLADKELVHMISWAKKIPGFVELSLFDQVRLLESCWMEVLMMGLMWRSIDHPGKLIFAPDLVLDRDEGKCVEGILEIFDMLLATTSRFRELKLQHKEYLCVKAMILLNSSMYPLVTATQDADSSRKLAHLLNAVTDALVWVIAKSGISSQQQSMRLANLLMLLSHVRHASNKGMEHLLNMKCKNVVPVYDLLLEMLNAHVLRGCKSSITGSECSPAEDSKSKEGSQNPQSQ
UniProt P10275: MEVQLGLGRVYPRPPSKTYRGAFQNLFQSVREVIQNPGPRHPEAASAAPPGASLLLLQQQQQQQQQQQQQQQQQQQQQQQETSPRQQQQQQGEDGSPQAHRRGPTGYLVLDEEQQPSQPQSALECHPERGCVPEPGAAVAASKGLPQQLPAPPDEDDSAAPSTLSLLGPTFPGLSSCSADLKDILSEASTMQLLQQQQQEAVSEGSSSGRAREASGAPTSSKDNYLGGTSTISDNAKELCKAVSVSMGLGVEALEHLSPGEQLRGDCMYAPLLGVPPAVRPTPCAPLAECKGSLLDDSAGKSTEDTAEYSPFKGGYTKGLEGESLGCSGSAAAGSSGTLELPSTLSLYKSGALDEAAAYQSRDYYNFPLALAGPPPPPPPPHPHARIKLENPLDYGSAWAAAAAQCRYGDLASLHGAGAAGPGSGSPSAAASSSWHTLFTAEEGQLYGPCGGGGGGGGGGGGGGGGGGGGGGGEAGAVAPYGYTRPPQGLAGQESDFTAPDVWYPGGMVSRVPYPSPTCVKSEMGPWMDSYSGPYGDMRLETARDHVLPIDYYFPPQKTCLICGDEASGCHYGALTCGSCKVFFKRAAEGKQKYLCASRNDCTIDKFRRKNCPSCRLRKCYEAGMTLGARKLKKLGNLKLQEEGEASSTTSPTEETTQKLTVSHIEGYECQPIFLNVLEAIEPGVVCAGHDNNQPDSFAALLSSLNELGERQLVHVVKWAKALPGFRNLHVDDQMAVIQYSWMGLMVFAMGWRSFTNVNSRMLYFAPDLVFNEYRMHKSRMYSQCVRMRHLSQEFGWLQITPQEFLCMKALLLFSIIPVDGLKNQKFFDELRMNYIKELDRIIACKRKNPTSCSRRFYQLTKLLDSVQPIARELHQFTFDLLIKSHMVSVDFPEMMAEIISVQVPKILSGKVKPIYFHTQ
UniProt Q99808: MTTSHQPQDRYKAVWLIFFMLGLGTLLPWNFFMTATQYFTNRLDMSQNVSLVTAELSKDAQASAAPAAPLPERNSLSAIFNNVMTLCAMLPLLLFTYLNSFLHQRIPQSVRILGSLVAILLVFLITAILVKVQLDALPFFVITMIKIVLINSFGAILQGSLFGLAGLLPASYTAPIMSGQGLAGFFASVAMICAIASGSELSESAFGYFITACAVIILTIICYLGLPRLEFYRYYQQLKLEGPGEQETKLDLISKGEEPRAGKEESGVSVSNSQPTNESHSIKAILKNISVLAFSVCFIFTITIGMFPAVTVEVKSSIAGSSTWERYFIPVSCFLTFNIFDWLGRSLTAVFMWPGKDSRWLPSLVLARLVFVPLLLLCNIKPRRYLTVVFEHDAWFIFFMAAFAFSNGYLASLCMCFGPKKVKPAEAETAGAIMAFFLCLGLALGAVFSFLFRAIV

Key:
[1] = molecular target: Nuclear receptor subfamily 1 group I member 2 (Homo sapiens) (UniProt O75469); assay: NVS_NR_hPXR: NovaScreen (NVS) Nuclear Receptor Binding Assay for human Pregnane X Receptor (PXR) (AID 2283365);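 further: a drop in FRET signal versus DMSO baseline means the compound binds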
Method in brief: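 Cell-free binding assay with extracted human PXR protein, read by TR-FRET 2 h after dosing; loss of signal relative to DMSO baseline indicates binding. Primary screen at 25 uM in duplicate, actives retested in concentration series.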

[2] = molecular target: Peroxisome proliferator-activated receptor gamma (Homo sapiens) (UniProt P37231); assay: NVS_NR_hPPARg: NovaScreen (NVS) Nuclear Receptor Binding Assay for human Peroxisome Proliferator-activated Receptor gamma (PPARg) (AID 2283370)
Method in brief: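 Cell-free binding to extracted PPARg protein, read by fluorescence polarization 2 h after dosing; loss of signal relative to DMSO baseline marks displacement. Primary screen in duplicate at 25 uM, actives retested in concentration series.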

[3] = molecular target: Bile acid receptor (Homo sapiens) (UniProt Q96RI1); assay: OT_FXR_FXRSRC1_0480: Odyssey Thera (OT) 8-hour HEK293T Protein-Complementation Assay for Farnesoid X receptor/SRC-1 Co-activator (AID 2283383)
Method in brief: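 HEK293T protein-fragment complementation assay: FXR and SRC-1 coactivator are fused to reporter fragments, and their interaction restores a fluorescent reporter. Readout was taken 8 h after dosing, with gain of signal fit relative to DMSO.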

[4] = molecular target: human Norepinephrine Transporter (NET), SLC6A2 (gene 6530) (UniProt P23975); assay: NVS_TR_hNET: NovaScreen (NVS) Transporter Assay for human Norepinephrine Transporter (NET) (AID 2283377);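 further: cell-free membrane protein extracted from CHO cells expressing human NET; displacement of radioligand from human NET seen as loss of scintillation signal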
Method in brief: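 Scintillation counts of filter-retained radioligand served as the readout, taken 1 h post-dosing in a cell-free CHO-derived system. Test chemicals ran first at 25 uM in duplicate; confirmed hits were retested across concentrations.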

[5] = molecular target: mouse Estrogen Receptor alpha (Era), Esr1 (gene 13982) (UniProt P19785); assay: NVS_NR_mERa: NovaScreen (NVS) Nuclear Receptor Binding Assay for mouse Estrogen Receptor alpha (Era) (AID 2283378);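 further: hit means loss of bound radioligand signal relative to DMSO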
Method in brief: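 Cell-free radioligand binding with extracted mouse Era protein; competitive displacement of radiolabelled ligand, read by filter-based scintillation counting 18 hours after dosing. Loss of signal versus DMSO baseline taken as binding; single screening concentration 25 uM, actives followed in concentration series.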

[6] = molecular target: Bile acid receptor (Homo sapiens) (UniProt Q96RI1); assay: OT_FXR_FXRSRC1_1440: Odyssey Thera (OT) 24-hour HEK293T Protein-Complementation Assay for Farnesoid X receptor/SRC-1 Co-activator (AID 2283384)
Method in brief: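 HEK293T cells, 24 h after chemical dosing. FXR–SRC-1 coactivator interaction read as fluorescence from protein-fragment complementation of a split reporter. Gain of signal fitted against DMSO baseline.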

[7] = molecular target: guinea pig Sigma Receptor, Non-selective Binding, SIGMAR1 (gene 100135589) (UniProt Q60492); assay: NVS_OR_gSIGMA_NonSelective: NovaScreen (NVS) Nuclear Receptor Binding Assay for guinea pig Sigma Receptor, Non-selective Binding (AID 2283367)
Method in brief: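 gp brain membr., radioligand displacement, 1 h, filtration + scint. counting; DMSO = baseline; 25 uM x2 primary, conc.-response confirm.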

[8] = molecular target: rat Androgen Receptor (AR), Ar (gene 24208) (UniProt P15207); assay: NVS_NR_rAR: NovaScreen (NVS) Nuclear Receptor Binding Assay for rat Androgen Receptor (AR) (AID 2283366)
Method in brief: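 Cell-free radioligand binding on extracts of prostate from testosterone-pretreated rats, read by filter-based scintillation counting 18 h after dosing. Loss of bound signal fitted positively versus DMSO; primary screen in duplicate at 25 uM, actives followed up in concentration series.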

[9] = molecular target: human Serotonin Transporter (SERT), SLC6A4 (gene 6532) (UniProt P31645); assay: NVS_TR_hSERT: NovaScreen (NVS) Transporter Assay for human Serotonin Transporter (SERT) (AID 2283372)
Method in brief: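 Radioligand binding to native SERT in human platelet membranes, read by filter-based scintillation counting 1 h after dosing. Primary screen in duplicate at 25 uM; actives followed up in concentration series; loss of signal versus DMSO baseline.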

[10] = molecular target: Estrogen receptor beta (Homo sapiens) (UniProt Q92731); assay: OT_ER_ERbERb_1440: Odyssey Thera (OT) 24-hour HEK293T Protein-Complementation Assay for Estrogen Receptor-beta/-beta Homodimer (AID 2283380);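 further: fluorescence gain from ER beta LBD homodimer complementation read by laser scanning cytometry; scored as signal increase over DMSO baseline for both agonists and antagonists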
Method in brief: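 Fluorescence increase, nuclear for agonists or whole-cell for antagonists, relative to DMSO vehicle, quantified by laser scanning cytometer after fixation and Draq5 staining. Readout from 24 h treatment of HEK293T cells carrying complementation-paired ER beta LBD (aa 310-547).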

[11] = molecular target: Agonist Androgen Response Element (ARE), AR (gene 367) (UniProt P10275); assay: OT_AR_ARELUC_AG_1440: Odyssey Thera (OT) 24-hour CHO-K1 Luciferase Assay for Agonist Androgen Response Element (ARE) (AID 2283379)
Method in brief: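 Agonist mode, 24 h exposure in CHO-K1 ARE-luciferase cells; values reflect luminescence induction over vehicle.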

[12] = molecular target: human Adenosine Transporter (Adot), SLC29A1 (gene 2030) (UniProt Q99808); assay: NVS_TR_hAdoT: NovaScreen (NVS) Transporter Assay for human Adenosine Transporter (Adot) (AID 2283368)
Method in brief: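 U937-derived membranes, cell-free radioligand binding, filter scintillation 1 h after dosing. 25 uM duplicate screen; hits (e.g. 30% inhibition) run in concentration-response up to 50 uM; loss of signal versus DMSO.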

Cc1cccc(O)c1
AC50 [1]: inconclusive: 0.0763 µM
AC50 [2]: inconclusive: 25 µM

NC(=O)c1ccccc1O
AC50 [1]: inconclusive: 44.6 µM
AC50 [2]: inconclusive: 0.308 µM

CC/C=C\C/C=C\C/C=C\CCCCCCCC(=O)O
AC50 [1]: active: 3.05 µM
AC50 [2]: active: 7.69 nM and inconclusive: 1.76 µM
outcome [3]: inactive

CCOC(=O)CC(O)(CC(=O)OCC)C(=O)OCC
AC50 [1]: inconclusive: 42.3 µM

CCN(CC)C(=O)c1cc(S(=O)(=O)Cc2ccccc2)c(N2CCC(c3ccccc3)CC2)cc1N(CC)CCN(C)C
AC50 [1]: active: 15.4 µM
AC50 [4]: active: 10.4 µM
AC50 [5]: active: 2.54 µM
AC50 [3]: active: 4.46 µM
AC50 [6]: active: 4.38 µM

CC(=O)S[C@@H]1CC2=CC(=O)CC[C@]2(C)[C@H]2CC[C@@]3(C)[C@@H](CC[C@@]34CCC(=O)O4)[C@H]12
AC50 [1]: active: 25 µM
AC50 [7]: inconclusive: 0.347 µM
AC50 [5]: active: 6.63 µM
outcome [5]: inactive

C#C[C@]1(O)CC[C@H]2[C@@H]3CCC4=CC(=O)CC[C@@H]4[C@H]3CC[C@@]21CC
AC50 [1]: inconclusive: 1.16 µM
outcome [2]: inactive
AC50 [5]: inconclusive: 25 µM

CC[C@H](c1ccc(O)cc1)[C@@H](CC)c1ccc(O)cc1
AC50 [1]: inconclusive: 25 µM
outcome [1]: inactive
outcome [8]: inactive
AC50 [2]: active: 6.81 µM and inconclusive: 202 nM
AC50 [5]: active: 1.52 nM and active: 2.29 nM and active: 4.85 nM
AC50 [3]: inconclusive: 0.297 µM

CC(C)CCCCCCc1ccc(O)cc1
AC50 [1]: inconclusive: 1.07 µM and inconclusive: 25 µM
AC50 [2]: inconclusive: 0.462 µM
AC50 [5]: active: 3.14 µM and active: 7.57 nM and active: 7.26 µM
AC50 [3]: inconclusive: 22.3 µM

C[C@]12CC[C@@H]3c4ccc(O)cc4CC[C@H]3[C@@H]1CC[C@H]2O
AC50 [1]: inconclusive: 25 µM
outcome [1]: inactive

CCCCCCCC/C=C\CCCCCCCC(=O)O
AC50 [1]: inconclusive: 5.08 µM
AC50 [5]: active: 35.8 µM

O=C(OCCOCCOCCOC(=O)c1ccccc1)c1ccccc1
outcome [1]: inactive
AC50 [2]: inconclusive: 0.932 µM
outcome [6]: inactive

CCNc1cccc(C)c1
AC50 [1]: inconclusive: 25 µM
AC50 [9]: inconclusive: 0.0667 µM

CCCCCCc1ccc(N)cc1
AC50 [1]: inconclusive: 0.0124 µM
AC50 [5]: active: 0.138 µM

NCc1cccc(C2CCN(C(=O)c3ccc(C#Cc4ccccc4F)o3)CC2)c1
AC50 [1]: active: 7.85 µM
AC50 [2]: active: 5.98 µM
outcome [9]: inactive
AC50 [5]: inconclusive: 30.7 µM
AC50 [10]: inconclusive: 50 µM
AC50 [3]: inconclusive: 22.4 µM

CCCCCCCCCC=CCC1CC(=O)OC1=O (stereo not drawn)
outcome [1]: inactive
AC50 [2]: active: 25 µM
AC50 [5]: inconclusive: 46 µM
AC50 [11]: active: 21.2 µM

CCCCCCCCCCCCCCOS(=O)(=O)O
AC50 [1]: active: 7.25 µM

CCCOC(=O)c1ccc(O)cc1
AC50 [1]: inconclusive: 25 µM
outcome [2]: inactive
AC50 [5]: active: 25 µM

O=C(O)/C=C/c1ccccc1
AC50 [1]: inconclusive: 0.113 µM
AC50 [3]: inconclusive: 9.92 µM
AC50 [6]: inconclusive: 50 µM

O=C(Nc1ccc(Cl)cc1)Nc1ccc(Cl)c(Cl)c1
AC50 [8]: inconclusive: 6.82 µM
AC50 [2]: inconclusive: 6.79 µM
outcome [5]: inactive
AC50 [11]: active: 0.336 µM

Cc1cc(Cc2cc(C)cc(C(C)(C)C)c2O)c(O)c(C(C)(C)C)c1
AC50 [1]: inconclusive: 25 µM
AC50 [5]: inconclusive: 37.8 µM
AC50 [3]: inconclusive: 23.4 µM
AC50 [6]: inconclusive: 30.9 µM

CCOC(=O)CC
AC50 [1]: inconclusive: 24.9 µM
outcome [6]: inactive

C=CC(C)(CCC=C(C)C)OC(C)=O (stereo not drawn)
AC50 [1]: inconclusive: 4.03 µM
outcome [5]: inactive
AC50 [3]: active: 76 µM
outcome [6]: inactive

CC(C)(C)c1ccc(-c2ccc(C(C)(C)C)cc2)cc1
AC50 [1]: inconclusive: 6.71 µM
AC50 [6]: active: 76.6 µM

COc1cc([N+](=O)[O-])ccc1N
AC50 [1]: inconclusive: 15.7 µM
outcome [11]: inactive
outcome [3]: inactive

CCc1cc(Cc2cc(CC)c(N)c(CC)c2)cc(CC)c1N
outcome [1]: inactive
AC50 [5]: inconclusive: 0.74 µM
AC50 [3]: active: 11.8 µM

O=C1c2c(O)ccc(Nc3ccc(CCO)cc3)c2C(=O)c2c([N+](=O)[O-])ccc(O)c21
AC50 [8]: inconclusive: 0.0267 µM

COCCOC[C@H](CC1(C(=O)NC2CCC(C(=O)O)CC2)CCCC1)C(=O)Oc1ccc2c(c1)CCC2 (stereo partly drawn)
AC50 [12]: inconclusive: 25 µM
AC50 [11]: inconclusive: 50 µM
